The other results are listed elsewhere or left out.
test system: T1, CTL2-GFP (C. trachomatis L2/434/Bu, GFP-expressing); design: species or system HeLa; Intracellular C. trachomatis growth in HeLa cells, bulk GFP fluorescence relative to DMSO; conditions: bulk GFP, single well; 28.5 h, 10 µM; inhibitor
T1 construct: L2/434/Bu, GFP-expressing

Row | SMILES | % of control remaining [%]
1 | Cc1cc2c(o1)CCc1sc(N(C)C(=O)C3CCCO3)nc1-2 (stereo not shown) [CBK281932] | 119.926
2 | CCn1c(C2CC(=O)N(c3ccc(C)cc3C)C2)nc2ccccc21 (stereo not shown) [CBK287505] | 150.911
3 | COc1ccc(S(=O)(=O)N(C)CC(=O)O)c2ccccc12 [CBK268459] | 79.9282
4 | CN1CCN(CCCNC(=O)N2CCN(c3cc(C(F)(F)F)ccn3)CC2)CC1 [CBK156431] | 114.501
5 | Cn1c(=O)n(C)c2cc(CNC3(c4ccccc4)CC3)ccc21 [CBK282746] | 134.754
6 | Cc1cc(OC(C)C(=O)Nn2cnnc2)ccc1Cl (stereo not shown) [CBK269690] | 135.398
7 | CN(C)CCN(C)c1nc(-c2ccccc2F)cn2ccnc12 [CBK037406] | 105.934
8 | O=C(O)c1ccc(NCc2ccccc2OCc2ccc(F)cc2)cc1 [CBK266487] | 140.34
9 | Cc1c(NC(=O)CSc2nnc(-c3cccc([N+](=O)[O-])c3)n2C)c(=O)n(-c2ccccc2)n1C [CBK266757] | 143.287
10 | CN(C)C(=O)c1ccc(Cn2ccnc(N3CCC(Sc4ccccc4)CC3)c2=O)cc1 [CBK153651] | 100.589
11 | O=C(O)CCCN1C(=O)c2ccccc2C1=O [CBK056635] | 102.19
12 | CCSc1ccc(-c2cc(N(C)c3cccc(C)c3)n3nccc3n2)cc1 [CBK037115] | 158.592
13 | Cc1nn(-c2ccccc2)c2sc(C(=O)N3CCN(C(=O)c4ccccc4)CC3)cc12 [CBK297554] | 134.5
14 | CNS(=O)(=O)c1ccc(NC(=O)Nc2ccc([N+](=O)[O-])cc2OC)cc1 [CBK266939] | 108.971
15 | COC(=O)/C=C/c1cn(C2CC(O)C(CO)O2)c(=O)[nH]c1=O (stereo not shown) [CBK201244] | 193.572
16 | COc1ccc(C(=O)Nc2nc(-c3ccc4c(c3)OCCO4)cs2)cc1OC [CBK287588] | 133.884
17 | Cc1ccccc1C(=O)Nc1cc(NC(=O)c2ccccc2C)cc(C(=O)O)c1 [CBK262007] | 100
18 | O=C(CN1C(=O)c2ccccc2C1=O)Nc1cccc2cccnc12 [CBK261320] | 115.159
19 | Cc1cccc(C(=O)NCCc2nc3ccccc3[nH]2)c1 [CBK263493] | 114.423
20 | C[C@@H]1CN(C(=O)OCc2nccn2C)C[C@H](C)O1 [CBK200142] | 92.4247

Row | SMILES | % of control remaining [%]
21 | CCOC(=O)C(C(C)=O)(N1CCOCC1)N1CCOCC1 [CBK261173] | 119.493
22 | O=C(CCN1C(=O)c2ccc(Br)cc2C1=O)N1CCN(Cc2ccccc2)CC1 [CBK269238] | 129.629
23 | CN(Cc1cccnc1)C(=O)Cc1ccc(-n2cccn2)cc1 [CBK297726] | 164.58
24 | CCn1c(CN2CCCC2c2noc(C)n2)nc2cc(F)ccc21 (stereo not shown) [CBK305250] | 89.6577
25 | CN(CCCn1c(=S)[nH]c2ccccc2c1=O)C1CCCCC1 [CBK296642] | 113.654
26 | CS(=O)(=O)c1ccc(-c2cnc(N)c(NCC3CCOCC3)n2)cc1 [CBK063849] | 120.508
27 | CCN(CC(=O)NC(C)(C)C)S(=O)(=O)c1cccc(C#N)c1 [CBK306087] | 127.086
28 | CN(CCC1CCOCC1)c1nc2c(c(=O)[nH]1)Cc1ccccc1OC2 [CBK306622] | 94.275
29 | O=C(Cn1cc(C(=O)NC2CCCC2)ccc1=O)NCC1(c2ccccc2)CCCC1 [CBK286248] | 112.184
30 | Nc1ncc(-c2ccc(C(=O)N3CCOCC3)cc2)nc1C(=O)Nc1ccccc1 [CBK149153] | 101.338
31 | Cc1ccc(S(=O)(=O)NCCSc2nc(-c3ccc([N+](=O)[O-])cc3)c[nH]2)cc1 [CBK268518] | 80.1046
32 | COc1cc(-c2nnc(SCC(=O)O)n2-c2ccccc2)cc(OC)c1OC [CBK131695] | 112.365
33 | Cc1nn(C)cc1S(=O)(=O)NCC1(c2ccccc2)CCCC1 [CBK282766] | 127.074
34 | O=C1COC[C@H]([C@H](O)c2ccc(NC(=O)c3cnccn3)cc2)N1 [CBK289673] | 114.574
35 | N#Cc1ccc(-c2nc3cc(Cl)c(F)cc3[nH]2)cc1 [CBK096290] | 142.68
36 | Cc1cccc(OCC(=O)N2CCN(S(=O)(=O)c3ccc([N+](=O)[O-])cc3)CC2)c1 [CBK264221] | 127.155
37 | COc1cccc2cc(C(=O)NCc3cccc4ccccc34)oc12 [CBK149800] | 91.3965
38 | COCCn1c(CO)nnc1[C@H]1C[C@@H](NC(=O)c2cc(O)ccc2F)C1 [CBK307698] | 65.1189
39 | CC(C)(C)c1ccc(NC(=O)C(=O)NCCCn2ccnc2)cc1 [CBK267358] | 137.69
40 | Cc1onc(-c2ccccc2)c1C(=O)n1cccn1 [CBK287274] | 123.671

From entry 4 up to 5, copied from above:
Row | SMILES | % of control remaining [%]
4 | CN1CCN(CCCNC(=O)N2CCN(c3cc(C(F)(F)F)ccn3)CC2)CC1 [CBK156431] | 114.501
5 | Cn1c(=O)n(C)c2cc(CNC3(c4ccccc4)CC3)ccc21 [CBK282746] | 134.754

Reference: PMC12040169 (PLOS Biology, 2025)
